In article PMC11530239:
Results are given in words; binding and its absence hold for the method and conditions named. Binding seen in cells or lysates may run through a third protein. Binding calls can cover weak binding; strength is not graded here.

Amino acid sequences for entries named in this document (tags omitted). A change or cut given only in a name is not applied to a line headed by its entry.
UniProt Q9NPI6: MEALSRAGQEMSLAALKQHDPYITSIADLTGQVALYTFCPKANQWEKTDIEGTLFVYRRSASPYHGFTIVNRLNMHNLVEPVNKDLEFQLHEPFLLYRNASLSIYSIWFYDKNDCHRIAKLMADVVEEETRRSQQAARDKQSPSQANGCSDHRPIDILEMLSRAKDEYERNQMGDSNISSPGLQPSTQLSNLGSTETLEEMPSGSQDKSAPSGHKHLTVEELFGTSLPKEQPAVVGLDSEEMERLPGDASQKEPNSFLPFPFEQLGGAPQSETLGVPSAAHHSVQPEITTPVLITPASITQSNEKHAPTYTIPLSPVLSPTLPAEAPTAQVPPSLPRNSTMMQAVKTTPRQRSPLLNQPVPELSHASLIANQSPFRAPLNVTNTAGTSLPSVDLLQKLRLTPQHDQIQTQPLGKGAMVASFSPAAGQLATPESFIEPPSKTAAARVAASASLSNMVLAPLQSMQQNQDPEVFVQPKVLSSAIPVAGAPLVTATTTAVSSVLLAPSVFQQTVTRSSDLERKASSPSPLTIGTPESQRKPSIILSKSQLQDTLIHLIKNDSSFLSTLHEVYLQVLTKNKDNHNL
UniProt Q12796: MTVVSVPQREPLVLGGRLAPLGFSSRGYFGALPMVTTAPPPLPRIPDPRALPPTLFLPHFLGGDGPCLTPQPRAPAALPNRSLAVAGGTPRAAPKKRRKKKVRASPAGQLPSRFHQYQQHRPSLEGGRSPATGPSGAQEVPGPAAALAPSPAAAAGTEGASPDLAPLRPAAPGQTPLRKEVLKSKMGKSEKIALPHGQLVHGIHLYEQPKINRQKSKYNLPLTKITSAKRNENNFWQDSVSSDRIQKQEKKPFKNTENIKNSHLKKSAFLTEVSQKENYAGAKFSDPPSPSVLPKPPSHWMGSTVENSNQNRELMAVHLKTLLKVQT
UniProt Q9NPJ4: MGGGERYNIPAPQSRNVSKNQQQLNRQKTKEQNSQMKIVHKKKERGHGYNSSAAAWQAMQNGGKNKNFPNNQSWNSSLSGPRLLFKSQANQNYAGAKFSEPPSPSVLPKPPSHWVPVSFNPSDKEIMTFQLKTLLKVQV

Molecular target: GFP-tagged DCP1a EVH1 domain (human) (UniProt Q9NPI6)
Assay: co-IP; GFP-tagged DCP1a (full-length or fragments) overexpressed in DCP1a/b-knockout HEK-293T cells; immunoprecipitated with anti-GFP antibodies in the presence of RNase A; western blot

binding	Substance
binds	DCP2 (as co-precipitated with GFP-DCP1a constructs) (from UniProt Q8IU60 1-420) (enzyme)
binds	HA-tagged PNRC1 (from UniProt Q12796 1-327)
binds	V5-tagged PNRC2 (from UniProt Q9NPJ4 1-139)
